Results are given in words; binding and its absence hold for the method and conditions named.
Legend:
mLTBP1-TGFb3 (mouse) = test: ELISA, purified hIgG4 titrated from about 0.002 to 100 nM, readout RLU, panel mLTBP1-TGFb3
hLTBP1-TGFb3 (human) = test: ELISA, purified hIgG4 titrated from about 0.002 to 100 nM, readout RLU, panel hLTBP1-TGFb3

binding (mLTBP1-TGFb3 (mouse)): no binding (tested: 100 nM) | binding (hLTBP1-TGFb3 (human)): no binding (tested: 100 nM)
B1: Ab46 hIgG4 (antibody, V domains shown)
VH: EVQLLESGGGLVQPGGSLRLSCAASGFTFADYAMTWVRQAPGKGLEWVSAISGSGAATYFADSVKGRFTISRDNSKNTLYLQMNSLRAEDTAVYYCARVSSGHWDYDYWGQGTLVTVSS
VL: DIQLTQSPSSLSASVGDRVTITCRASQSISSYLNWYQQKPGKAPKLLIYAASGLESGVPSRFSGSGSGTDFTLTISSLQPEDFATYYCQQTYGVPLTFGGGTKVEIK

— patent US20230057012A1, “TGFB INHIBITORS AND USE THEREOF” (Scholar Rock, Inc., priority 2020, published 2023)
